PubChem BioAssay AID1159578 | Peter MacCallum Cancer Centre | 2015
Screen: 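siRNA pools altering how lymphatic endothelial cells close a scratch wound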 (primary screen). Cell system: human lymphatic endothelial cells. Knock-down reagent: siRNA pool against human genes, 40 nM. Duration: 48 h after transfection. Read-out: 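High-content imaging of dye-stained cells in a scratch assay measures filled wound area and nuclei per well; duplicate means given as ratio to mock and robust z-score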. Reading the numbers: migration robust z-score: higher = faster migration into the scratch; nuclei per well: higher = more cells in the well. Hit rule: 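Pools averaging fewer than 3300 nuclei are never called; remaining pools count as changed when migration robust z lies outside -2 to 2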. Meaning of the calls: active = migration changed; inactive = no migration change, or too few cells.
Shown is one part, drawn at random, of about 18,000 deposited reagents. In the full data, about 1,030 (5.7%) are marked active. 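Inactive calls also include pools with fewer than 3300 nuclei, whose migration was not assessed.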 Raw values are not corrected between plates. Further read-outs or replicates are left out here.

| target | migration robust z-score | migration class with cell-count check | nuclei per well, duplicate mean | Call |
| --- | --- | --- | --- | --- |
| MINDY4 (GeneID 84182) | 0.38 | migration z between -2 and 2; enough cells | 5799 | inactive |
| NAA80 (GeneID 24142) | -0.31 | migration z between -2 and 2; enough cells | 6043 | inactive |
| TOB2 (GeneID 10766) | -0.45 | migration z between -2 and 2; enough cells | 5716 | inactive |
| FABP3 (GeneID 2170) | 2.46 | migration z above 2; enough cells | 6124 | active |
| GATAD2A (GeneID 54815) | -0.55 | migration z between -2 and 2; enough cells | 5580 | inactive |
| MYPOP (GeneID 339344) | 0.47 | migration z between -2 and 2; enough cells | 5434 | inactive |
| PABIR2 (GeneID 159090) | -0.33 | migration z between -2 and 2; enough cells | 7684 | inactive |
| COMP (GeneID 1311) | -0.01 | migration z between -2 and 2; enough cells | 4676 | inactive |
| C15orf32 (GeneID 145858) | 0.57 | migration z between -2 and 2; enough cells | 5225 | inactive |
| GRM3 (GeneID 2913) | 0.93 | migration z between -2 and 2; enough cells | 6360 | inactive |
| ADORA2A (GeneID 135) | 0.34 | migration z between -2 and 2; enough cells | 5756 | inactive |
| H1-8 (GeneID 132243) | 0.16 | migration z between -2 and 2; enough cells | 5690 | inactive |
| GABARAPL1 (GeneID 23710) | -1.6 | migration z between -2 and 2; enough cells | 4736 | inactive |
| TRIM72 (GeneID 493829) | 1.04 | migration z between -2 and 2; enough cells | 4964 | inactive |
| IFRD2 (GeneID 7866) | -1.39 | migration z between -2 and 2; enough cells | 5642 | inactive |
| BHLHE40 (GeneID 8553) | 0.35 | migration z between -2 and 2; enough cells | 6699 | inactive |
| IL6 (GeneID 3569) | -0.57 | migration z between -2 and 2; enough cells | 4958 | inactive |
| TMEM213 (GeneID 155006) | -1.31 | under 3300 nuclei; migration not judged | 3278 | inactive |
| SIAE (GeneID 54414) | -0.88 | migration z between -2 and 2; enough cells | 5972 | inactive |
| RAX (GeneID 30062) | -0.03 | migration z between -2 and 2; enough cells | 5690 | inactive |
| ITGAM (GeneID 3684) | 1.91 | migration z between -2 and 2; enough cells | 6873 | inactive |
| PAPOLA (GeneID 10914) | 1.06 | migration z between -2 and 2; enough cells | 5396 | inactive |
| ANGEL1 (GeneID 23357) | -1.99 | migration z between -2 and 2; enough cells | 5412 | inactive |

Only “migration robust z-score”, for 4 of the entries above:
GATAD2A (GeneID 54815): -0.55
MYPOP (GeneID 339344): 0.47
PABIR2 (GeneID 159090): -0.33
COMP (GeneID 1311): -0.01
